Measurements reported in publication PMC9334634.
No constants are given. Whether binding was seen depends on the method and setting. Binding seen in cells or lysates may run through a third protein. A result given as binding can be weak or reduced; the word gives no strength.

Target: VDAC (human (endogenous in HepG2))
Test: co-IP; CHAPS lysates of HepG2 EV cells; IP with anti-VDAC antibody overnight in the cold, magnetic protein A/G beads, immunoblot with HKDC1 antibody; HKDC1-KO cells as control

B1: hexokinase domain containing 1 (HKDC1) (protein, UniProt Q2TB90-1 1-917)
chain: MFAVHLMAFYFSKLKEDQIKKVDRFLYHMRLSDDTLLDIMRRFRAEMEKGLAKDTNPTAAVKMLPTFVRAIPDGSENGEFLSLDLGGSKFRVLKVQVAEEGKRHVQMESQFYPTPNEIIRGNGTELFEYVADCLADFMKTKDLKHKKLPLGLTFSFPCRQTKLEEGVLLSWTKKFKARGVQDTDVVSRLTKAMRRHKDMDVDILALVNDTVGTMMTCAYDDPYCEVGVIIGTGTNACYMEDMSNIDLVEGDEGRMCINTEWGAFGDDGALEDIRTEFDRELDLGSLNPGKQLFEKMISGLYLGELVRLILLKMAKAGLLFGGEKSSALHTKGKIETRHVAAMEKYKEGLANTREILVDLGLEPSEADCIAVQHVCTIVSFRSANLCAAALAAILTRLRENKKVERLRTTVGMDGTLYKIHPQYPKRLHKVVRKLVPSCDVRFLLSESGSTKGAAMVTAVASRVQAQRKQIDRVLALFQLTREQLVDVQAKMRAELEYGLKKKSHGLATVRMLPTYVCGLPDGTEKGKFLALDLGGTNFRVLLVKIRSGRRSVRMYNKIFAIPLEIMQGTGEELFDHIVQCIADFLDYMGLKGASLPLGFTFSFPCRQMSIDKGTLIGWTKGFKATDCEGEDVVDMLREAIKRRNEFDLDIVAVVNDTVGTMMTCGYEDPNCEIGLIAGTGSNMCYMEDMRNIEMVEGGEGKMCINTEWGGFGDNGCIDDIWTRYDTEVDEGSLNPGKQRYEKMTSGMYLGEIVRQILIDLTKQGLLFRGQISERLRTRGIFETKFLSQIESDRLALLQVRRILQQLGLDSTCEDSIVVKEVCGAVSRRAAQLCGAGLAAIVEKRREDQGLEHLRITVGVDGTLYKLHPHFSRILQETVKELAPRCDVTFMLSEDGSGKGAALITAVAKRLQQAQKEN
  binding: binds
